Data on 33 targets can be found in the supplement of paper PMC10849652.

Sequences of proteins named here, by UniProt entry; tags and fusion partners are left off. A change or cut given only in a name is not applied to a line headed by its entry.
UniProt P28062: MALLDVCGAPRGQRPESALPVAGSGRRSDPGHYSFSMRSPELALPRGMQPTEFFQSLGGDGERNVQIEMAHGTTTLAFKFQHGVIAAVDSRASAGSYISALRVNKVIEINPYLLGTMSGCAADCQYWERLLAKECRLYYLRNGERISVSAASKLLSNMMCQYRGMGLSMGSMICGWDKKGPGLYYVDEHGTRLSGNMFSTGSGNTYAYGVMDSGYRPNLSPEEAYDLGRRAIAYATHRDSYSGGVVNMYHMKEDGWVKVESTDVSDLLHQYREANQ
UniProt Q9P2W1: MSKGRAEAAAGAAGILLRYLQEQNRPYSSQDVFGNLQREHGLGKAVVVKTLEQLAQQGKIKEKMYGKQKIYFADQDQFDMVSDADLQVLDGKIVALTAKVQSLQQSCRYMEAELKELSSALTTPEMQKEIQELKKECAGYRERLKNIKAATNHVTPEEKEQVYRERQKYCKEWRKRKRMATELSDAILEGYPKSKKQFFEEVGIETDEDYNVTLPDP
UniProt Q9UJV8: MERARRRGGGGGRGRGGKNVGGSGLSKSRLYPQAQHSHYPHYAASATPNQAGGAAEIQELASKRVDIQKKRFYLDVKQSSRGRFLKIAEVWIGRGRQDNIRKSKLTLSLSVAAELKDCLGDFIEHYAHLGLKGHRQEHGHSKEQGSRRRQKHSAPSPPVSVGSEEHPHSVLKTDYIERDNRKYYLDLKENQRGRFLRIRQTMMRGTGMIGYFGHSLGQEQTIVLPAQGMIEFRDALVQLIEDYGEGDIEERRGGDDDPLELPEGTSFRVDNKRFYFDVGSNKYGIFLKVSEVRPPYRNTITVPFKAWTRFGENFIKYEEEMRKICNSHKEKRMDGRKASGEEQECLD
UniProt P53801: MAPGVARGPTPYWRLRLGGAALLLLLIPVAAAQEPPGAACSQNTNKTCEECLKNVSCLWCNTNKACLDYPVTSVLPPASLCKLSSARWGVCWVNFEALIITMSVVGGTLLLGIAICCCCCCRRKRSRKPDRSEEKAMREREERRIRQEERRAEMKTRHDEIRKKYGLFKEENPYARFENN
UniProt O14818: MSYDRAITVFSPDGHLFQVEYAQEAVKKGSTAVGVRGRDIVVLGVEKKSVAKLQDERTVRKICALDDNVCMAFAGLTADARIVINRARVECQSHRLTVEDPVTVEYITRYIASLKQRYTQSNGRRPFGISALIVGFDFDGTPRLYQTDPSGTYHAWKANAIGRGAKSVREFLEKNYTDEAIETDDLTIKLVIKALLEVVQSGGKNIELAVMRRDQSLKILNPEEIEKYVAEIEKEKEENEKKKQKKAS
UniProt Q7Z5L2: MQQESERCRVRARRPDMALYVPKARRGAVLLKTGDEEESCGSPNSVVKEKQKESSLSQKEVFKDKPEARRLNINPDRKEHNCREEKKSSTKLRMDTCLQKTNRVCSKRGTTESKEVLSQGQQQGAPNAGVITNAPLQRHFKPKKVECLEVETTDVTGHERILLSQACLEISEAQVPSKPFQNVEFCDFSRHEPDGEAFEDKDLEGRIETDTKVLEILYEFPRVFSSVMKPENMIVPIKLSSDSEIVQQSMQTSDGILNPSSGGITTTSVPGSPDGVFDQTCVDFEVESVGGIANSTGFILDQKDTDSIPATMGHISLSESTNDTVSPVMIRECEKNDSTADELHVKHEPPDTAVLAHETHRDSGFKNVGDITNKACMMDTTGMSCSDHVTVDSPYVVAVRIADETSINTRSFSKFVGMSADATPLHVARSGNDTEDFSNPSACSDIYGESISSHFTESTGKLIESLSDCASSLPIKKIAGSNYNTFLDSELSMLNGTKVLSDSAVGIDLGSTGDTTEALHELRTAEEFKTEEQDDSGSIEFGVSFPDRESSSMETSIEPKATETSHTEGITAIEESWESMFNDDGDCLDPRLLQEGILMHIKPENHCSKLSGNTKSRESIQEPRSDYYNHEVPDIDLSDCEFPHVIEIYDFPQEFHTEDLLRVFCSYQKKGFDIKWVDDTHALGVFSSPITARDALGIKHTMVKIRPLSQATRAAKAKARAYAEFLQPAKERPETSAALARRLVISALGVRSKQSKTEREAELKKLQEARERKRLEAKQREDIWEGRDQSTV
UniProt Q8WUY3: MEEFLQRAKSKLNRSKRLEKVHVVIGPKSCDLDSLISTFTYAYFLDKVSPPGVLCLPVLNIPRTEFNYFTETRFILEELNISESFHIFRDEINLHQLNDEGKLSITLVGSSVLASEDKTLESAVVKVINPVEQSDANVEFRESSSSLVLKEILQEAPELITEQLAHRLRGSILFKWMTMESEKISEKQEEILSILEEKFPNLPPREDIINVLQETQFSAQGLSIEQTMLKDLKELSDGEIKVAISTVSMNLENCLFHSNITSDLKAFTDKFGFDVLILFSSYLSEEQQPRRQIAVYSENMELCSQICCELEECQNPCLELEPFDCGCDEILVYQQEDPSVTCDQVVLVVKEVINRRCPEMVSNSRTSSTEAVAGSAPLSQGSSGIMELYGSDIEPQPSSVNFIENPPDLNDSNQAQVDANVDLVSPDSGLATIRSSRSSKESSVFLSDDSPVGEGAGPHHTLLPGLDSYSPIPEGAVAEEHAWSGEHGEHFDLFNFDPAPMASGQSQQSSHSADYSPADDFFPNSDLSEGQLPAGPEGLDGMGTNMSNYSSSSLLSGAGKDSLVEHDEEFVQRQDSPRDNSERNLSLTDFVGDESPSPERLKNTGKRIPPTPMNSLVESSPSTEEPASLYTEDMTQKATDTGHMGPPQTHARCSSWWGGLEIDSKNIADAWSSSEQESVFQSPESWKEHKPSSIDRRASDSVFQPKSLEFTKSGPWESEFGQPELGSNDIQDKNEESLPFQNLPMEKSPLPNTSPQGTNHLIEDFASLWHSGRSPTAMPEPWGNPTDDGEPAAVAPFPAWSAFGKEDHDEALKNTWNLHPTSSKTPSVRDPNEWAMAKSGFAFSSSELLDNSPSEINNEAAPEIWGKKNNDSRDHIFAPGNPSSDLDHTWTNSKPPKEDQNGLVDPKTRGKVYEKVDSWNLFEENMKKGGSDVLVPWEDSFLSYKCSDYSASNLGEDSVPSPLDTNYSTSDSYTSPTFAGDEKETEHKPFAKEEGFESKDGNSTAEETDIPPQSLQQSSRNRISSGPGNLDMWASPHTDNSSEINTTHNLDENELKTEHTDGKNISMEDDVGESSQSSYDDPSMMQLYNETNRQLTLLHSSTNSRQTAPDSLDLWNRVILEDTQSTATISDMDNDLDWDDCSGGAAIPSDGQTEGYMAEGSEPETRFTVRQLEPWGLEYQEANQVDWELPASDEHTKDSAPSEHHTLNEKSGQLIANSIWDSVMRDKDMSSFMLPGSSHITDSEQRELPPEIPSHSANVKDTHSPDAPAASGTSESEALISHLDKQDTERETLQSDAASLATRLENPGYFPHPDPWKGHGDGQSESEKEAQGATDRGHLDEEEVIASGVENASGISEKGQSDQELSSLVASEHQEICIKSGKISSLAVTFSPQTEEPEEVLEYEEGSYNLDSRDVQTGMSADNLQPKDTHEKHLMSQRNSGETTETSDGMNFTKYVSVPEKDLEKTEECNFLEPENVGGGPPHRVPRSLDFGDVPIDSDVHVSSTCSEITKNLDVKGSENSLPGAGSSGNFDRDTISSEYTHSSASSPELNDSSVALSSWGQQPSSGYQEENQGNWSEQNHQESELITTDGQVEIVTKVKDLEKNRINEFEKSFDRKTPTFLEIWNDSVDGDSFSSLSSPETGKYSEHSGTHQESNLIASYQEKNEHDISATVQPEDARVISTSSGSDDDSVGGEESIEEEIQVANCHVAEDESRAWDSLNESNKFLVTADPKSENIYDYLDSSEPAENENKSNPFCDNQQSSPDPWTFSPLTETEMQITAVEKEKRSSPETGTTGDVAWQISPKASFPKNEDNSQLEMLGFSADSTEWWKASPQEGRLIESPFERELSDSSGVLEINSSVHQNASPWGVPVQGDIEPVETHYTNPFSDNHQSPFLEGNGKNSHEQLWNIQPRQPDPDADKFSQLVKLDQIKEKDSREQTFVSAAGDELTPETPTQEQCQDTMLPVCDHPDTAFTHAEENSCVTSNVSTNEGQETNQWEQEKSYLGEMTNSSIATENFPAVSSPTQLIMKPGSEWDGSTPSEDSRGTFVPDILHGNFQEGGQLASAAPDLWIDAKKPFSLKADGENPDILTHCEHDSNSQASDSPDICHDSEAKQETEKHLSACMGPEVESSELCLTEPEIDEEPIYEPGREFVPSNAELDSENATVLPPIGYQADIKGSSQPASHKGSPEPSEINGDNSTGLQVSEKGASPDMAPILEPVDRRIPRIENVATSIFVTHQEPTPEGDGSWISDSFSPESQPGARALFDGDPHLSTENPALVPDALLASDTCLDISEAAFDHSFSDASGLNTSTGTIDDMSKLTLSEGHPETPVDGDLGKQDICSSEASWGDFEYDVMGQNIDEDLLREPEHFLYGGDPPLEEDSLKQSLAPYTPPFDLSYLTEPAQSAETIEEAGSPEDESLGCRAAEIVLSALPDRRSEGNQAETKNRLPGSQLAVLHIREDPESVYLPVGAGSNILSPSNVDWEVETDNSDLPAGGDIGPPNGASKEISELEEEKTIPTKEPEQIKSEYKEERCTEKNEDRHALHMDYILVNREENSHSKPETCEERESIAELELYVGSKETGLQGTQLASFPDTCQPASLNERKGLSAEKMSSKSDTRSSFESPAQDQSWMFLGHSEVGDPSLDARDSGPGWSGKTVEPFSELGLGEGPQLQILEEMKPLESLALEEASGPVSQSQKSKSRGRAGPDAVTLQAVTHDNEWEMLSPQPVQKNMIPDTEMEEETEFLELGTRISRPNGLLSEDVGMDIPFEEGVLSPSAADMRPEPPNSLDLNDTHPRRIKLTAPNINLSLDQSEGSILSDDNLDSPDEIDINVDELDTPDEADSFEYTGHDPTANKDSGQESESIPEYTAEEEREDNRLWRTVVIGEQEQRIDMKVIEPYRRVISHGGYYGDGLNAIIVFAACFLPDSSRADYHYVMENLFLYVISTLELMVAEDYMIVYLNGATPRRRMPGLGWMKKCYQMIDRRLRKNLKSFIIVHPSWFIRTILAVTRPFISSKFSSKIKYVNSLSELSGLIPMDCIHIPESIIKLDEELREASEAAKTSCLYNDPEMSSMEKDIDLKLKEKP
UniProt Q96I23: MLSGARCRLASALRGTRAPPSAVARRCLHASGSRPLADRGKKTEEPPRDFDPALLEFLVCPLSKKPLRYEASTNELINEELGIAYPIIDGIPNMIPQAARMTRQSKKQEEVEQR
UniProt Q03393: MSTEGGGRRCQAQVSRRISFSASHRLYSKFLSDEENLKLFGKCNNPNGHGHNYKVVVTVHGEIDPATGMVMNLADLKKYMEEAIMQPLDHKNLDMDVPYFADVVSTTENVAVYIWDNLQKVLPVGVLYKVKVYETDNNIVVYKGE
UniProt Q9BRX8: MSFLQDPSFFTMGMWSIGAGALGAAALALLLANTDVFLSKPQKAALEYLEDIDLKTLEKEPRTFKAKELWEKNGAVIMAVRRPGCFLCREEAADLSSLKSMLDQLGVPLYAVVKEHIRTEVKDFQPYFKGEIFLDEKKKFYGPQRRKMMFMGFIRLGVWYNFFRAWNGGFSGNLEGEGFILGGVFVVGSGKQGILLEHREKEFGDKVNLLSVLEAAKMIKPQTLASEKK
UniProt P28065: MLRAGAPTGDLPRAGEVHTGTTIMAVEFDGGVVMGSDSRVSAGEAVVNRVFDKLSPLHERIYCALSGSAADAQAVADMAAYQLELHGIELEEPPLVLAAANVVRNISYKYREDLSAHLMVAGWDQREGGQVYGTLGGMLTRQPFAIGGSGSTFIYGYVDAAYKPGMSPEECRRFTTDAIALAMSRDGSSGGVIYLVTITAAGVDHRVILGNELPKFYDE
UniProt P15151: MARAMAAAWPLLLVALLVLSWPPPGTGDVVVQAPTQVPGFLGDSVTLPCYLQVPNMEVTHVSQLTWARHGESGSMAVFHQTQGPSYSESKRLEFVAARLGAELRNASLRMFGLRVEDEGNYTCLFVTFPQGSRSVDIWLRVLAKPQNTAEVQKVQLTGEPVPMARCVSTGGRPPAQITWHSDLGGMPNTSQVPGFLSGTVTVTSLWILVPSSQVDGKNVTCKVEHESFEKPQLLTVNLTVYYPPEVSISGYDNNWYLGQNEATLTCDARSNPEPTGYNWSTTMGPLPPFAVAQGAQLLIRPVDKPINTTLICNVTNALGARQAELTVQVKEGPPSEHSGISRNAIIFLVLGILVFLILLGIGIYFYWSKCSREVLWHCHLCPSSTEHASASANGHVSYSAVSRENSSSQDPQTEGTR
UniProt Q86Y79: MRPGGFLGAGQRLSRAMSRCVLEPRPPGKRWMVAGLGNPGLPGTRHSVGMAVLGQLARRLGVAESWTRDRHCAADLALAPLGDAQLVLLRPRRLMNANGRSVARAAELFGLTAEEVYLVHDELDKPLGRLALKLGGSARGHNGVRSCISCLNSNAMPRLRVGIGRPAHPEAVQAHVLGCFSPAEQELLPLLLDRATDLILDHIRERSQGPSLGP

Some of the results follow.

Compound in the first test: CC[C@H](C)N1C=C(C2=C(C=C(C=C21)C3=CN=C(C=C3)N4CCNCC4)C(=O)NCC5=C(C=C(NC5=O)C)C)C
Nature of the test: log2 fold change, soluble protein after heating vs DMSO (PISA); higher = thermal stabilisation; K562 cells, 10 uM, 30 min; active = over 0.2 and 3.5 SD of the protein, either way, in both replicates (recomputed). A digest of the protocol:
(§1)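 K562 cells (2×10^6 cells/mL) were treated with 10 μM compound for 30 min, and aliquots were heated for 3 min over 48°C-58°C. Pooled aliquots were extracted in PBS with 0.5% NP-40 at 4°C, and the supernatant after 21,000xg for 90 min was measured by TMTpro 16plex LC-MS/MS with channel sums equalised. Reported thermal stability, relative to control samples and from duplicates, is a log2 fold change.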
Turning to PSMB8 (UniProt P28062), the log2 fold change is inactive: -0.001.
Still for that read-out and setting: under PTPRN2 isoform 3 (UniProt Q92932) stands inactive: 0.061; under PSMC3IP (UniProt Q9P2W1), inactive: 0.141.
Still for that read-out and setting: under PURG (UniProt Q9UJV8) stands inactive: -0.049; under PSMD4 (UniProt Q5VWC4), inactive: 0.015.
On the same count and under the same terms, under PTTG1IP (UniProt P53801) stands inactive: -0.154.
Take PSMA7 isoform 2 (UniProt O14818): the log2 fold change was inactive: -0.101.
Same read-out and setting: under R3HCC1L (UniProt Q7Z5L2) stands inactive: 0.192; under PSIP1 (UniProt V9GYT7), inactive: -0.195; under PSMC1 (UniProt G3V4X1), inactive: -0.01.
The same measure, in the same setting: as for PSD3 (UniProt Q9NYI0), the figure is inactive: 0.061.
The same measure, in the same setting: as for PRUNE2 isoform 3 (UniProt Q8WUY3), the figure is inactive: 0.107; as for PSMB10 (UniProt P40306), inactive: -0.023; as for PYURF (UniProt Q96I23), inactive: -0.046.
For PTS (UniProt Q03393), the log2 fold change is inactive: -0.025.

Compound in a further test: CC[C@H](C)[C@@H](C(=O)N[C@@H]([C@@H](C)O)C(=O)N[C@@H](CC(C)C)C(=O)[C@]1(CO1)C)NC(=O)[C@H]([C@@H](C)CC)N(C)C(=O)C [epoxomicin]
The description is as above. Summed up:
as §1
Consider PSMC3 (UniProt E9PLG2), for which the log2 fold change was inactive: -0.273.
PRXL2A (UniProt Q9BRX8): the log2 fold change is inactive: 0.099.
Still for that read-out and setting: as for PTPRN2 isoform 3 (UniProt Q92932), the figure is inactive: -0.159; as for PYCR1 (UniProt J3QKT4), inactive: 0.193.
Same read-out and setting: as for PSMC3IP (UniProt Q9P2W1), the figure is inactive: 0.005; as for PURG (UniProt Q9UJV8), inactive: -0.16.
Same read-out and setting: under PSMD4 (UniProt Q5VWC4) stands inactive: -0.181; under PTTG1IP (UniProt P53801), inactive: -0.017; under PSMA7 isoform 2 (UniProt O14818), inactive: -0.249.
With PTPRJ (UniProt Q12913), the log2 fold change is inactive: 0.02.
On to PSMB9 (UniProt P28065), for which the log2 fold change is inactive: 0.049.
Consider PVR (UniProt P15151), for which the log2 fold change was inactive: -0.016.
Turning to PRUNE2 isoform 3 (UniProt Q8WUY3), the log2 fold change is inactive: 0.097.
The same measure, in the same setting: as for PYURF (UniProt Q96I23), the figure is inactive: 0.071.
The same measure, in the same setting: as for PTS (UniProt Q03393), the figure is inactive: -0.041.

Compound in a further test: CCn1c(C(=O)N(C2CC2)C2CC2)cc2c3c(ncn3C)c(Nc3cc(C)n(C)n3)nc21
Described as above. A digest of the protocol:
as §1
For PSMB8 (UniProt P28062), the log2 fold change was inactive: 0.107.
Same read-out and setting: under PRXL2A (UniProt Q9BRX8) stands inactive: -0.037; under PYCR1 (UniProt J3QKT4), inactive: -0.104; under PSMC3IP (UniProt Q9P2W1), inactive: -0.01.
The same measure, in the same setting: as for PYCARD isoform 2 (UniProt Q9ULZ3), the figure is inactive: 0.064; as for PSMA7 isoform 2 (UniProt O14818), inactive: -0.079.
Consider R3HCC1L (UniProt Q7Z5L2), for which the log2 fold change was inactive: -0.18.
On the same count and under the same terms, as for PTBP2 isoform 3 (UniProt Q9UKA9), the figure is inactive: -0.071; as for PRUNE2 isoform 3 (UniProt Q8WUY3), inactive: 0.026; as for PYURF (UniProt Q96I23), inactive: 0.054.
Same read-out and setting: as for PTGER3 isoform 2 (UniProt P43115), the figure is inactive: -0.615; as for PTS (UniProt Q03393), inactive: 0.044.

Compound in a further test: CCn1cc(-c2ccnc3[nH]c(-c4cccc(CN(C)C)c4)cc23)c(-c2ccc(NC(=O)N(C)C)cc2)n1
The description is as above. A digest of the protocol: as §1
Consider PSMB8 (UniProt P28062), for which the log2 fold change is inactive: -0.061.
On the same count and under the same terms, as for PRXL2A (UniProt Q9BRX8), the figure is inactive: 0.143; as for PYCR1 (UniProt J3QKT4), inactive: -0.052.
Same read-out and setting: under PSMC3IP (UniProt Q9P2W1) stands inactive: 0.043; under PSMD4 (UniProt Q5VWC4), inactive: 0.014; under PTEN isoform 2 (UniProt P60484), inactive: -0.016.
For the target PTPN9 (UniProt P43378), the log2 fold change is inactive: -0.075.
For PTTG1IP (UniProt P53801), the log2 fold change was inactive: -0.01.
Same read-out and setting: under PSMB9 (UniProt P28065) stands inactive: 0.033; under R3HCC1L (UniProt Q7Z5L2), inactive: 0.127; under PUM1 (UniProt Q14671), inactive: -0.084.
As to PSIP1 (UniProt V9GYT7), the log2 fold change is inactive: 0.128.
Still for that read-out and setting: as for PVR (UniProt P15151), the figure is inactive: -0.064; as for PTBP2 isoform 3 (UniProt Q9UKA9), inactive: -0.217.
For PSMC1 (UniProt G3V4X1), the log2 fold change was inactive: 0.108.
Still for that read-out and setting: under PYURF (UniProt Q96I23) stands inactive: 0.
Still for that read-out and setting: as for PTRH1 (UniProt Q86Y79), the figure is inactive: -0.265.
Same read-out and setting: as for PTS (UniProt Q03393), the figure is inactive: 0.043.

Compound in the next test: CN(C)CC(=O)Nc1ccc2[nH]c(=O)c3ccccc3c2c1
The description is as above. Summed up: as §1
On to PSMC3 (UniProt E9PLG2), for which the log2 fold change was inactive: -0.238.
Still for that read-out and setting: as for PRXL2A (UniProt Q9BRX8), the figure is inactive: 0.332.
PYCR1 (UniProt J3QKT4): the log2 fold change was inactive: -0.022.
Same read-out and setting: under PSMC3IP (UniProt Q9P2W1) stands inactive: 0.094; under PSMD4 (UniProt Q5VWC4), inactive: -0.038; under PTTG1IP (UniProt P53801), inactive: -0.041.
On the same count and under the same terms, as for PSMA7 isoform 2 (UniProt O14818), the figure is inactive: -0.346.
Same read-out and setting: under PSMB9 (UniProt P28065) stands inactive: -0.043; under R3HCC1L (UniProt Q7Z5L2), inactive: -0.033; under PVR (UniProt P15151), inactive: 0.034.
Take PSMA3 (UniProt H0YJ03): the log2 fold change was inactive: -0.04.
Same read-out and setting: under PTP4A3 (UniProt O75365) stands inactive: 0.205.
On the same count and under the same terms, as for PSD3 (UniProt Q9NYI0), the figure is inactive: 0.004.
Same read-out and setting: under PSMA3 (UniProt G3V4X5) stands inactive: 0.084; under PRUNE2 isoform 3 (UniProt Q8WUY3), inactive: 0.028.
As to PUF60 isoform 2 (UniProt Q9UHX1), the log2 fold change was inactive: 0.067.
On the same count and under the same terms, as for PSMB10 (UniProt P40306), the figure is inactive: -0.052.
The same measure, in the same setting: as for PYURF (UniProt Q96I23), the figure is inactive: -0.031; as for PTS (UniProt Q03393), inactive: 0.033.
Take PSMD8 (UniProt K7ERW6): the log2 fold change was inactive: 0.027.
